Assay results: article PMC8093215
No constants are given. Whether binding was seen depends on the method and setting.

Legend:
[1] = target: human DNMT1 BAH1 domain, W796A, His6-MBP construct used for the autoinhibitory linker binding (human) (UniProt P26358); assay: ITC; hDNMT1 BAH1 domain (WT, W796A or Mut^YW) with the autoinhibitory linker peptide hDNMT1(714-727); 5 °C; single-site binding mode; both purified
[2] = target: human DNMT1 BAH1 domain, Y775A/W796A (Mut^YW), His6-MBP construct used for the autoinhibitory linker binding (human) (UniProt P26358); assay: as above
[3] = target: hDNMT1 BAH1 domain W796A from the His6-MBP vector (human) (UniProt P26358); assay: ITC; hDNMT1 BAH1 (WT, W796A or Mut^YW) with the autoinhibitory linker peptide hDNMT1(714-727); 5 °C; single-site fit; both purified
[4] = target: hDNMT1 BAH1 domain Y775A/W796A from the His6-MBP vector (human) (UniProt P26358); assay: as above
[5] = target: hDNMT1 BAH1 domain from the His6-MBP vector (human) (UniProt P26358)

| Binder | binding [1] | binding [2] | binding [3] | binding [4] | binding [5] |
| --- | --- | --- | --- | --- | --- |
| SPKKMHQGKKKKQNY (peptide, UniProt P26358 714-727) [hDNMT1(714-727) autoinhibitory linker peptide] | no binding | no binding | – | – | – |
| SPKKMHQGKKKKQNY (peptide, UniProt P26358 714-727) [autoinhibitory linker peptide hDNMT1(714–727)] | – | – | no binding | no binding | no binding |
